Screening data, single-dose tests

Chains of the proteins cited; added tags and fusions are not shown. Residues count along the entry.
UniProt Q4DA54, 1-478: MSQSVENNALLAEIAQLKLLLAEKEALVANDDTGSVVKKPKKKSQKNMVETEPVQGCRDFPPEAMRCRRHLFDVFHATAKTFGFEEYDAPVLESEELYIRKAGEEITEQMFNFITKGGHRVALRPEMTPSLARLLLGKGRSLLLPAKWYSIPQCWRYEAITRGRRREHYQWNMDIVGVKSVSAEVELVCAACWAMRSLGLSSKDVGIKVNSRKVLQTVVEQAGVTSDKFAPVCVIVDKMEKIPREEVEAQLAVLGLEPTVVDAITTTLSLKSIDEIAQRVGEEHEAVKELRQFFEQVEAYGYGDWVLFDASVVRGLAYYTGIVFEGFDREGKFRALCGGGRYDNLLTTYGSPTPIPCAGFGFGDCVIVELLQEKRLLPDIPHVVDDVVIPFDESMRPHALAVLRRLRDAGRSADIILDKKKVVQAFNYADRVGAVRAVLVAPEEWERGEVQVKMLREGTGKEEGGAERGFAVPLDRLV
UniProt P9WPC5, whole entry: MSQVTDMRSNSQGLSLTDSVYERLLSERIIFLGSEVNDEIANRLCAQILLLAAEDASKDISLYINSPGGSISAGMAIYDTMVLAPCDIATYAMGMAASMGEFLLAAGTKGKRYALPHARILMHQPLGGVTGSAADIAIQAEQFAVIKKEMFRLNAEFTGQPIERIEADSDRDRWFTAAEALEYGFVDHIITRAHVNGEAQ
UniProt P9WPC3, whole entry partner: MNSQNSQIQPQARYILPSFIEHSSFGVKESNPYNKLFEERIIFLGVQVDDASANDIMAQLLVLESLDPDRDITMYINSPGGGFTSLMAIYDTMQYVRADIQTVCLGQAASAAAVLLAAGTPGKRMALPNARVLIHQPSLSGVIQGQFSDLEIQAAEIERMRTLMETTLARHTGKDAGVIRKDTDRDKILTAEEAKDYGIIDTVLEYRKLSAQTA
UniProt Q8IDJ8, 1-583: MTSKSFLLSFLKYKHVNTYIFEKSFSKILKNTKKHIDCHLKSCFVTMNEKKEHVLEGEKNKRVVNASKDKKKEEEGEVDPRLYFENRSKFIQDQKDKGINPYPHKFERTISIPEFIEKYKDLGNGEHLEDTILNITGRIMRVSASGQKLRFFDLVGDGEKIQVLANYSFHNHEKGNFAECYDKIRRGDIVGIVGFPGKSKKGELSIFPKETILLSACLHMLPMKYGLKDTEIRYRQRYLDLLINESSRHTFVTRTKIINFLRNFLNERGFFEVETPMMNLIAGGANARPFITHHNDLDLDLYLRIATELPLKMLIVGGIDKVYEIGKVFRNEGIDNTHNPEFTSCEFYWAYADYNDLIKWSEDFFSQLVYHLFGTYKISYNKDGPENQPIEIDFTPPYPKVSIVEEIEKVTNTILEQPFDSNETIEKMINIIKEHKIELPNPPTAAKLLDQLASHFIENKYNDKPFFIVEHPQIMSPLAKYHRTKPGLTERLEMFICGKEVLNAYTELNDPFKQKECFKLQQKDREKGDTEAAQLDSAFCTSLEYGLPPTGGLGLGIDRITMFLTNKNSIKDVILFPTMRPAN

Leishmania in macrophages: 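Cell assay of Leishmania donovani living inside macrophages; the read-out is not stated. Tested at 30 µM. The record gives no direction; compounds that gave an IC50 in retests scored well above the rest, so higher reads as stronger inhibition. Of about 69,000 compounds tested this way, about 1,000 (1.5%) reached 50% or more in at least one test.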
TcHisRS: 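Enzyme assay of histidyl-tRNA synthetase; the read-out is not stated. Target: Histidine-tRNA ligase, Trypanosoma cruzi CL Brener (UniProt Q4DA54). Compounds at 30 µM. Higher reads as stronger inhibition (inferred: compounds with an IC50 in retests scored well above the rest). Size under these conditions: about 69,000 compounds, about 31 of them at 50% or above in at least one test.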
ClpP1P2: 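ClpP1P2, Mycobacterium tuberculosis (UniProt P9WPC5 and UniProt P9WPC3). Protease assay of ClpP1P2, read by the AMC dye that it sets free. Tested at 50 µM. Direction is inferred from only a few compounds that gave an IC50; most scored high, so higher reads as stronger inhibition. Most other retested compounds had strongly negative values. Of about 69,000 compounds tested this way, about 10 (0.015%) reached 50% or more in at least one test.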
Toxoplasma: 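Assay of Toxoplasma gondii numbers, read through their beta-galactosidase reporter with a colour substrate. Concentration: 10 µM. The record gives no direction; the compounds picked for IC50 retests had high values, so higher reads as fewer parasites. About 67,000 compounds were tested under these conditions; 0.38% (about 260) showed 50% or more at least once.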
PfKRS1: 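Enzyme assay of the cytosolic lysyl-tRNA synthetase in 384-well plates, read by luminescence. Target: Lysine-tRNA ligase, Plasmodium falciparum 3D7 (UniProt Q8IDJ8). Compounds at 30 µM. Direction is inferred from only a few compounds that gave an IC50; most scored high, so higher reads as stronger inhibition. Size under these conditions: about 69,000 compounds, about 49 of them at 50% or above in at least one test.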

Results are given as percent effect. The controls that fix the scale are not given in the record; negative values are as filed. The compounds are a random part of those screened.

For Cc1cc(CNC2(c3ccccc3)CCCCC2)on1 the result was Leishmania in macrophages: 51.47%; TcHisRS: -6.077%; ClpP1P2: -3.593%; Toxoplasma: -0.1836%; PfKRS1: -1.317%. Result for CCn1cc(CN(C)S(=O)(=O)c2cnn(C)c2)cn1 was Leishmania in macrophages: 50.44%; TcHisRS: 3.478%; ClpP1P2: -6.322%; Toxoplasma: 10.44%; PfKRS1: 5.887%. Result for CCNC(=O)Cc1ccc(NC(=O)NC(CC)c2ccncc2)cc1 (configuration not stated) was Leishmania in macrophages: -39.52%; TcHisRS: 6.548%; ClpP1P2: -2.942%; Toxoplasma: -0.6554%; PfKRS1: -1.917%. For c1cnc(N2CCCC3(CN(CC4CCOCC4)CCO3)C2)cn1 (configuration not stated) the result was TcHisRS: 5.882%; ClpP1P2: -12.99%; PfKRS1: 6.269%. For Cc1ccc(CC(=O)N2CCOC(c3nc(C)n[nH]3)C2)cn1 (configuration not stated) the result was Leishmania in macrophages: 0.7805%; TcHisRS: 0%; ClpP1P2: -9.663%; Toxoplasma: -6.048%; PfKRS1: 3.952%. Result for [H][C@]12CC[C@](O)(CC1)C(CO)N2Cc1ccco1 (some centres not stated) was Leishmania in macrophages: 4.367%; Toxoplasma: -23.38%. Result for CCc1oc(C(=O)N2CCCC(c3nnn[nH]3)C2)cc1C (configuration not stated) was Leishmania in macrophages: 13.84%; TcHisRS: 9.278%; ClpP1P2: -1.736%; Toxoplasma: -6.207%; PfKRS1: 4.528%.

With Cc1ccc(CNC(=O)C2=NOC3(CCCNC3)C2)cc1 (configuration not stated) the screen gave Leishmania in macrophages: 26.98%; TcHisRS: 7.438%; ClpP1P2: 16.6%; Toxoplasma: -1.011%; PfKRS1: 5.026%. With [H][C@@]12C[C@H](C(=O)NC(C)C)[C@@]([H])(CN(C(=O)NCc3ccccc3)C1)O2 the screen gave Leishmania in macrophages: 6.729%; Toxoplasma: -0.05945%. COCC1CC2(CCN(C(=O)c3occc3C)CC2)CN1C(C)C.O=C(O)C(F)(F)F (configuration not stated) read Leishmania in macrophages: -7.416%; Toxoplasma: 11.68%. For CN(C)S(=O)(=O)N1CC[C@]2(C[C@@H](Oc3cccnc3)CO2)C1.O=C(O)C(F)(F)F the result was Leishmania in macrophages: 7.751%; Toxoplasma: 0.654%. Result for CN1[C@@H](C(=O)NCC2CC2)C[C@@H]2CN(Cc3ccoc3)C[C@@H]21 was TcHisRS: 1.442%; ClpP1P2: -2.042%; PfKRS1: -0.8631%. For CNC(=O)[C@@H](C1CCCCC1)N1CCC[C@H]1C(=O)N(C)CCN(C)C the result was TcHisRS: 0.9901%; ClpP1P2: -2.923%; PfKRS1: 3.755%. CCOCCn1nc(C2CCNCC2)n(Cc2ccccc2)c1=O read Leishmania in macrophages: 15.25%; TcHisRS: 4.082%; ClpP1P2: 10.34%; Toxoplasma: -7.571%; PfKRS1: 1.761%.

2 of the entries, repeated:

{"compound": "CCc1oc(C(=O)N2CCCC(c3nnn[nH]3)C2)cc1C", "stereo": "configuration not stated", "Leishmania in macrophages": 13.84, "TcHisRS": 9.278, "ClpP1P2": -1.736, "Toxoplasma": -6.207, "PfKRS1": 4.528}
{"compound": "CCOCCn1nc(C2CCNCC2)n(Cc2ccccc2)c1=O", "Leishmania in macrophages": 15.25, "TcHisRS": 4.082, "ClpP1P2": 10.34, "Toxoplasma": -7.571, "PfKRS1": 1.761}

Data taken from ChEMBL document CHEMBL3988442, “University of Dundee, Small-Polar-MMV Screening Library” (2021).